# Measured values as given in PubChem BioAssay AID588590 (National Center for Advancing Translational Sciences (NCATS), 2011).
# Sequences of proteins named here, by UniProt entry; tags and fusion partners are left off. A change or cut given only in a name is not applied to a line headed by its entry.
# UniProt Q9UNA4: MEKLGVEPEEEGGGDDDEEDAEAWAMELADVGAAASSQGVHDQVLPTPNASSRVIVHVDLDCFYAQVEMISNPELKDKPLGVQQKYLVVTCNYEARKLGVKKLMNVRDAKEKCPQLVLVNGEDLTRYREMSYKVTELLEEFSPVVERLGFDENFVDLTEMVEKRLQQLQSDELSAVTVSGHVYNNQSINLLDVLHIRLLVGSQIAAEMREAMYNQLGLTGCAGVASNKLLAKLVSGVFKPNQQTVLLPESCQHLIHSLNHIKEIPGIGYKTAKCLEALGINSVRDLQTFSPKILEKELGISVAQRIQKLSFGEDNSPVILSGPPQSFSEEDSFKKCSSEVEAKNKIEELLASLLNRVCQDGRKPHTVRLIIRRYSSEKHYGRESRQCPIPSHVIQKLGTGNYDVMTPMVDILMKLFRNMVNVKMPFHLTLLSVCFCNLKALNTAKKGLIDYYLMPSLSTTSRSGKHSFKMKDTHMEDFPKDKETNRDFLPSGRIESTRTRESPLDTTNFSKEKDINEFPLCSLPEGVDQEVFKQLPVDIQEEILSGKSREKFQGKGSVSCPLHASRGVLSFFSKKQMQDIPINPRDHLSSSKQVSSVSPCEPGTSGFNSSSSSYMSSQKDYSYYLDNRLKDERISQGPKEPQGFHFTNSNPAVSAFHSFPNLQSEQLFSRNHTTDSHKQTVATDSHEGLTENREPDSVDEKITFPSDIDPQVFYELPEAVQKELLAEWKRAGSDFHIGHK
# Out of some 390,000 compounds screened, about 4,000 (1%) were called active. The inconclusive results got no clear call from the source; some entries with a clear call stand among them for comparison. The call rests on the fitted dose curve; in most records, active means well fitted inhibition curve with a large enough effect; inconclusive means small, poorly fitted or top-dose-only effect, or another doubt; inactive means no such curve, though single readings can be large or run the other way. A potency beside an inconclusive call is a rough fit, not a confirmed value.
# Target: DNA polymerase iota (Homo sapiens) (UniProt Q9UNA4)
# Test: qHTS for Inhibitors of Polymerase Iota
# Details: Pol iota fluorescent replication assay, 10 min; series mostly up to 115 µM; activity, negative = inhibition: at the top concentration
# Outline: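 Fluorescent replication assay read twice, at 0 min and 10 min after adding 50 nM (final) substrate. Enzyme (10 nM) and compounds were first incubated 15 min at room temperature; enzyme-free buffer wells were negative controls.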
# Potency means the concentration at half of the fitted maximal effect.
Structure (SMILES),Potency,"activity, negative = inhibition"
O=C(Oc1ccccc1)c1ccc(-n2cnnn2)cc1,"inconclusive: 31.6 µM [inhibitor, partial curve, poor fit]",
Cc1ccn2c(=O)nc(SCC(=O)N3CCCc4ccccc43)nc2c1,"inconclusive: 20 µM [inhibitor, full curve]",
COc1ccccc1N1CCN(C(=O)/C=C/c2ccco2)CC1,,inactive: -16.4%
COc1cc2c(NC3CCN(C)CC3)nc(N3CCN(C)CC3)nc2cc1OCCCN(C)C,"inconclusive: 56.2 µM [inhibitor, single point]",
O=C(COC(=O)C1CCC1)Nc1ncc(Cl)cc1Cl,"inconclusive: 15.8 µM [inhibitor, partial curve, poor fit]",
COc1ccc2c(c1)c(/C=C/c1cc[n+](C)cc1)cn2C,"inconclusive: 11.2 µM [inhibitor, partial curve, poor fit]",
NC(=O)C1CCN(c2nc(-c3cccs3)cs2)CC1,"inconclusive: 20 µM [inhibitor, partial curve]",
Cc1nnc(SCC(=O)NN2C(=O)NC3(CCCCC3)C2=O)s1,,inactive: 36.3%
CCOC(=O)C1=C(C)N(c2ccc(Cl)cc2)C(=O)NC1c1cccc([N+](=O)[O-])c1 (stereo unspecified),"inconclusive: 25.1 µM [inhibitor, partial curve, poor fit]",
CCN(CC(=O)Nc1cc(Cl)ccc1C)C(=O)c1cc([N+](=O)[O-])ccc1N1CCOCC1,,inactive: 15.6%
CC(=O)c1cccc(NC(=O)/C(=C/c2ccco2)NC(=O)c2ccco2)c1,,inactive: 12.7%
COc1ccc(/C=C/c2c(-c3ccc(OC)cc3)oc(=O)c3cc(OC)c(OC)cc23)cc1,"inconclusive: 39.8 µM [inhibitor, single point]",
Clc1ccccc1CSc1nncn2c1cc1occc12,"inconclusive: 100 µM [inhibitor, single point]",
Cc1cccc(-c2nc3ccc(C(=O)NCCN4CCN(C)CC4)cc3nc2-c2cccc(C)c2)c1,"inconclusive: 50.1 µM [inhibitor, partial curve, poor fit]",
COc1ccc(NC(=O)CC2Nc3cccc4cccc(c34)NC2=O)cc1 (stereo unspecified),"inconclusive: 3.16 µM [inhibitor, full curve, poor fit]",
O=C(N/N=C/c1ccco1)C1CC1c1ccccc1 (stereo unspecified),active: 31.6 µM,
O=C(O)c1ccc2c(c1)C(=O)N(c1ccc(Cl)cn1)C2=O,"inconclusive: 28.2 µM [inhibitor, partial curve, poor fit]",
O=C(Nc1ccc(F)cc1F)c1noc2c1CCC2,active: 17.8 µM,
Cc1ccccc1-n1sc2cc(F)ccc2c1=O,,inactive: 82.1%
CCn1c(C)c(C2=CCN(S(=O)(=O)c3ccc(C)cc3)CC2)c2ccccc21,"inconclusive: 11.2 µM [inhibitor, partial curve, poor fit]",
CCOC(=O)CNC(=O)c1cc2c(=O)n(CC)c3ccccc3c2s1,"inconclusive: 89.1 µM [inhibitor, single point]",
CCC(C)(C)C1CCC2(CC1)NC(=O)N(CC(=O)NCCOc1ccccc1)C2=O (stereo unspecified),"inconclusive: 89.1 µM [inhibitor, single point]",

# Some of these compounds in order of molecular weight, ascending.
Structure (SMILES),Potency,"activity, negative = inhibition"
O=C(COC(=O)C1CCC1)Nc1ncc(Cl)cc1Cl,"inconclusive: 15.8 µM [inhibitor, partial curve, poor fit]",
Cc1ccn2c(=O)nc(SCC(=O)N3CCCc4ccccc43)nc2c1,"inconclusive: 20 µM [inhibitor, full curve]",
CCC(C)(C)C1CCC2(CC1)NC(=O)N(CC(=O)NCCOc1ccccc1)C2=O (stereo unspecified),"inconclusive: 89.1 µM [inhibitor, single point]",

# Later entries:

Structure (SMILES),Potency,"activity, negative = inhibition"
Cc1ccc(CSc2oc(-c3ccco3)nc2S(=O)(=O)c2ccc(Cl)cc2)cc1,,inactive: -21.1%
COc1ccc(-c2onc(C)c2C)cc1S(=O)(=O)Nc1ccc(OC(F)(F)F)cc1,,inactive: 6.22%
Cc1ccc(C(=O)N2CCCC(N3CCN(c4ccccc4C)CC3)C2)c(=O)[nH]1 (stereo unspecified),"inconclusive: 22.4 µM [inhibitor, full curve]",
Cc1cccnc1NC(=O)CNC(=O)c1sc2ccccc2c1Cl,,inactive: 12.8%
Cn1c2ccc(Cl)cc2c2nc3ccccc3nc21,"inconclusive: 56.2 µM [inhibitor, partial curve, poor fit]",
CCCOc1ccc(-c2cccc(NS(=O)(=O)c3cccs3)c2)nn1,,inactive: 2.97%
CC(NC(=O)COC(=O)/C=C/c1ccc2c(c1)OCO2)c1ccccc1 (stereo unspecified),,inactive: 3.02%
Cc1nc(NC(=O)c2ccccc2)sc1-c1csc(NCc2ccco2)n1,,inactive: 16.2%
O=C1CC(c2ccco2)CC(O)=C1C=Nc1ccccc1-c1ccccc1 (stereo unspecified),"inconclusive: 8.91 µM [inhibitor, full curve]",
N/C(=N\OC(=O)c1ccc(=O)n(Cc2ccccc2)c1)c1ccccn1,,inactive: 144%
COc1cc(OC)c(NC(=O)c2cnn(-c3cccc(Cl)c3C)c2C2CCN(C(=O)OC(C)(C)C)CC2)cc1Cl,"inconclusive: 70.8 µM [inhibitor, partial curve, poor fit]",
CN1C(=O)/C(=C/c2cccc([N+](=O)[O-])c2)C(=O)N1c1ccccc1,"inconclusive: 17.8 µM [inhibitor, partial curve]",
O=C(/C=C/c1c(F)cccc1Cl)c1ccc(O)cc1,"inconclusive: 20 µM [inhibitor, partial curve, poor fit]",
COc1ccc(Nc2ncnc3onc(-c4ccc(Cl)cc4)c23)cc1Cl,,inactive: 13.4%
CCOCCn1[nH]c2ccccc2c1=O,"inconclusive: 10 µM [inhibitor, partial curve, poor fit]",
O=C(Nc1ccc(S(=O)(=O)N2CCOCC2)cc1)c1ccc(=O)[nH]c1,"inconclusive: 89.1 µM [inhibitor, single point]",
Cc1c(C(=O)OC(C)C)sc(N)c1C(=O)OC(C)C,"inconclusive: 39.8 µM [inhibitor, partial curve, poor fit]",
COCCNC(=S)NNc1ccccc1[N+](=O)[O-],"inconclusive: 79.4 µM [inhibitor, single point]",
O=C1c2ccccc2-c2onc3c(N4CCN(CCO)CC4)cc(N4CCN(C(=O)c5ccco5)CC4)c1c23,"inconclusive: 56.2 µM [inhibitor, partial curve, poor fit]",
Cc1ccc(C2=NN(CC(=O)NC(C)c3ccccc3)C(=O)CC2)cc1 (stereo unspecified),"inconclusive: 79.4 µM [inhibitor, single point]",
CCOC(=O)N1CCN(C(=O)c2ccc3c(=O)n(Cc4ccc(OC)cc4)c(=S)[nH]c3c2)CC1,"inconclusive: 39.8 µM [inhibitor, single point]",
NC(=O)c1ccc(SCC(=O)OCC(=O)N2CCN(C(=O)c3ccco3)CC2)c([N+](=O)[O-])c1,"inconclusive: 50.1 µM [inhibitor, partial curve]",

# Retrieved one by one from the list above (2):
Structure (SMILES),Potency,"activity, negative = inhibition"
CCOC(=O)CNC(=O)c1cc2c(=O)n(CC)c3ccccc3c2s1,"inconclusive: 89.1 µM [inhibitor, single point]",
O=C(COC(=O)C1CCC1)Nc1ncc(Cl)cc1Cl,"inconclusive: 15.8 µM [inhibitor, partial curve, poor fit]",

# Following part

Structure (SMILES),Potency,"activity, negative = inhibition"
C=CCOc1ccc(C2c3c(oc4ccc(C)cc4c3=O)C(=O)N2CCCN2CCOCC2)cc1 (stereo unspecified),"inconclusive: 89.1 µM [inhibitor, single point]",
Cc1ccc(Cn2nc(C)c(/C=N/NC(=O)c3cccnc3)c2C)cc1,,inactive: 111%
CCOC(=O)c1c(C)[nH]c(C(=O)OC(C(=O)N(C)C)c2ccccc2)c1C (stereo unspecified),,inactive: 1.78%
O=C(COC(=O)COc1ccccc1)Nc1ncc([N+](=O)[O-])s1,"inconclusive: 22.4 µM [inhibitor, full curve, poor fit]",
CCCN(CC(=O)Nc1ccccc1C)C(=O)c1cccc(-n2cnnn2)c1,,inactive: 15.3%
CCc1nn(CC(=O)Nc2ccc(C)cc2C)c(=O)c2cc3sccc3n12,,inactive: 5.97%
CCOC(=O)Nc1c(Cl)n(C)c(=O)n(C)c1=O,"inconclusive: 5.01 µM [inhibitor, full curve, poor fit]",
CCc1cccc(CC)c1N(COC)C(=O)Cn1c(C)nc2ccccc21,"inconclusive: 89.1 µM [inhibitor, partial curve]",
COCCNC(=O)CCn1c(=O)c2cc(OC)c(OC)cc2n(CC(=O)Nc2ccccc2OC)c1=O,"inconclusive: 89.1 µM [inhibitor, single point]",
CC(=O)OCC(=O)C1CCC2C3CC=C4CC(O)CCC4(C)C3CCC12C (stereo unspecified),,inactive: 21.3%
CCC1(C)Cc2c(sc3[nH]c(=O)[nH]c(=O)c23)CS1 (stereo unspecified),"inconclusive: 15.8 µM [inhibitor, partial curve, poor fit]",
Nc1[nH]ncc1-c1ccc(F)cc1,"inconclusive: 44.7 µM [inhibitor, single point]",
C#CCOCCOCCOCCNc1nc(N2CCN(C(=O)C(Cc3cc4ccccc4[nH]3)n3cc(C(N)C(C)CC)nn3)CC2)nc(N2CCN(C(=O)C(Cc3cc4ccccc4[nH]3)n3cc(C(N)C(C)CC)nn3)CC2)n1 (stereo unspecified),"inconclusive: 14.1 µM [inhibitor, full curve]",
CN(C)S(=O)(=O)c1ccc(N=Cc2c(C(F)(F)F)[nH][nH]c2=O)cc1,,inactive: 15.6%
CC[C@@]1(C(=O)OC)N[C@H](CN(C)C(=O)COc2ccccc2)[C@@H]2C(=O)N(Cc3ccccc3)C(=O)[C@@H]21,"inconclusive: 14.1 µM [inhibitor, partial curve]",
Nc1nc(Cl)nc2c1ncn2C1OCC(O)C(O)C1O (stereo unspecified),"inconclusive: 50.1 µM [inhibitor, partial curve, poor fit]",
COc1ccc(C(=O)N2CCN(Cc3cc(OC)ccc3OC)CC2)cc1,,inactive: 30.4%
Cc1cc(N2CCOCC2)nc(SCc2ccc(Cl)cc2Cl)n1,"inconclusive: 22.4 µM [inhibitor, partial curve, poor fit]",
CC1(C)CC(=O)C2=C(C1)Nc1[nH]c(=S)[nH]c(=O)c1C2c1ccccc1 (stereo unspecified),"inconclusive: 3.55 µM [inhibitor, partial curve, poor fit]",
CCN1C(=O)[C@H]2[C@H]3CN=C(SCc4ccccc4)N3[C@@](C)(C(=O)OC)[C@H]2C1=O,"inconclusive: 15.8 µM [inhibitor, full curve]",
COc1ccccc1Nc1nc(C)nc2c1oc1ccccc12,"inconclusive: 31.6 µM [inhibitor, partial curve]",
O=c1cc2oc3cc(O)c(O)cc3c(-c3ccccc3[N+](=O)[O-])c-2cc1O,"inconclusive: 0.251 µM [inhibitor, full curve, poor fit]",
